# According to PubChem BioAssay AID2240 (Broad Institute, 2010):
# Among all 37,000 compounds or so, about 100 (0.27%) were called active. This list was built around the results that the source calls inconclusive (neither active nor inactive); the mix of calls is not that of the screen. Rule as the data show it: active = inhibition above about 85%; inconclusive = no clear call, values can overlap the other calls; inactive = below about 68%.
# Experiment: blocks MITF activity, primary screen, MITF inhibitor project, cell-based, luminescence (AID 2240);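 also: human melanocyte line stably carrying TRPM1 promoter luciferase reporter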
# Conditions: TRPM1 promoter luciferase, 24 h, stronger effect = higher value, concentration not given here
row,SMILES,inhibition
1,CC(C)c1c(O)ccc2c1CCC1C(C)(C)CCC[C@]21C (stereo partly drawn),active: 106%
2,CCNc1nc(SCC(N)=O)nc(N2CCOCC2)n1,inactive: -9.44%
3,CC(=O)O[C@H]1C[C@@]2(C)[C@@H](CC[C@H]3[C@@]4(C)C=CC(=O)[C@@H](C)[C@@H]4[C@H](OC(C)=O)C(=O)[C@@]32C)/C1=C(\CCC=C(C)C)C(=O)O,inconclusive: 70.7%
4,Cc1ccc(C(=O)Cn2c3c(sc2=N)CCCC3)cc1,active: 88.2%
5,Cc1ccc2oc(-c3cccc(NC(=O)COc4ccc(Cl)cc4)c3C)nc2c1,inconclusive: 71.1%
6,C[C@H]1CN([C@@H](C)CO)C(=O)c2cc(NC(=O)Nc3ccc(F)cc3)ccc2O[C@H]1CN(C)CC1CCCCC1,inconclusive: 63.3%
7,O=C(O)c1cccc(COc2ccc(CO)cc2Br)c1,inconclusive: 83.6%
8,COc1ccc(NC(=O)c2ccco2)cc1NC(=O)C(C)Oc1ccc(Cl)cc1Cl (stereo not drawn),inconclusive: 80.6%
9,C=CC(C)(C)c1c2c(c(O)c3c(=O)c4ccc(O)c(O)c4oc13)C=CC(C)(C)O2,inconclusive: 81.3%
10,Cc1c(NC(=O)CN(c2cccc(Br)c2)S(C)(=O)=O)cccc1[N+](=O)[O-],inactive: 1.42%
11,O=C(CCN1C(=O)C2C3C=CC(C3)C2C1=O)Nc1cccc2ccccc12 (stereo not drawn),inactive: 21.1%
12,Cc1noc(C)c1S(=O)(=O)N(C)C[C@@H]1Oc2ccc(NC(=O)C3CC3)cc2CC(=O)N([C@H](C)CO)C[C@@H]1C,inactive: -11.1%
13,O=C(CCSc1nc(-c2ccccc2)cs1)Nc1ccccc1,inconclusive: 82.2%
14,O=C(NCC(c1ccccc1)c1c[nH]c2ccccc12)Nc1ccc(Cl)cc1 (stereo not drawn),inconclusive: 80.1%
15,O=C(Nc1cccc(Br)c1)c1cccc2c1C(=O)c1ccccc1-2,inactive: 22.1%
16,C[C@@H]1OC(OC[C@H]2O[C@@H](Oc3cc(O)c4c(=O)cc(-c5ccc(O)c(O)c5)oc4c3)[C@H](O)[C@@H](O)[C@@H]2O)[C@H](O)[C@H](O)[C@H]1O (stereo partly drawn),inconclusive: 32.1%
17,COc1cccc(NC(=O)CSc2nnc(-c3ccc(Cl)cc3)n2-c2cccc(C)c2)c1,inconclusive: 80.2%
18,C[C@H](CO)N1C[C@H](C)[C@H](CN(C)S(=O)(=O)c2ccc(F)cc2)Oc2c(NC(=O)NC3CCCCC3)cccc2C1=O,inactive: 51.2%
19,CCOC(=O)n1ccn(C)c1=S,inconclusive: 58.1%
20,O=C(CC(C(=O)O)N1CCCCC1)Nc1cccc([N+](=O)[O-])c1 (stereo not drawn),inactive: 1.58%

row,SMILES,inhibition
1,Clc1ccc(CO/N=C(\Cn2ccnc2)c2ccc(Cl)cc2Cl)c(Cl)c1,active: 92.7%
2,COc1cc(C(Nc2ccccn2)c2cc(Cl)c3cccnc3c2O)cc(I)c1O (stereo not drawn),inactive: 15.3%
3,Cc1ccc(S(=O)(=O)NC(C)(C)C(=O)Oc2cc(C)c3c(c2)oc(=O)c2ccccc23)cc1,inconclusive: 27.4%
4,CCC1(C)Cc2ccccc2-c2nc(NCCCO)n(-c3ccc(C)cc3)c(=O)c21 (stereo not drawn),inactive: -10.1%
5,COc1ccc(NC(=O)Nc2ccc3c(c2)C(=O)N([C@@H](C)CO)C[C@H](C)[C@@H](CN(C)S(=O)(=O)c2ccc(Cl)cc2)O3)cc1,inconclusive: 52.9%
6,O=S(=O)(NCC1COc2ccccc2O1)c1ccc(S(=O)(=O)c2ccccc2)s1 (stereo not drawn),inactive: 19.9%
7,CSc1ccc(C2N[C@@H](C(=O)O)C(C)(C)S2)cc1 (stereo partly drawn),inactive: 9.21%
8,CC1(C)C(=O)C=C[C@@]2(C)C1C=C[C@]1(C)C2CC[C@@]2(C)[C@H](c3ccoc3)OC(=O)C3OC321 (stereo partly drawn),active: 101%
9,O=C(Nc1nc(-c2ccccc2)cs1)C12CC3CC(CC(C3)C1)C2,inactive: -19.6%
10,COC(=O)CC(O)(CCCC(C)(C)O)C(=O)O[C@@H]1C(OC)=C[C@]23CCCN2CCc2cc4c(cc2[C@@H]13)OCO4 (stereo partly drawn),active: 93.4%
11,COc1ccccc1NC(=O)CSc1ncnc2sc(-c3ccccc3)cc12,inconclusive: 72.8%
12,C=C(C)C(=O)O[C@H]1[C@H]2C(=C)C(=O)O[C@@H]2C[C@@H](C)/C=C/C(=O)[C@](C)(O)[C@@H]1OC(=O)C(=C)C,inconclusive: 82.3%
13,Cc1ccc(C23CC4CC(CC(CN)(C4)C2)C3)cc1C,active: 94.1%
14,CN(Cc1nc(-c2cccnc2)no1)S(=O)(=O)c1ccc(Br)cc1,inactive: -18.5%
15,COC(=O)C1=CO[C@@H](O[C@@H]2O[C@H](CO)[C@@H](O)[C@H](O)[C@H]2O)[C@@H]2[C@@](C)(O)[C@@H](OC(=O)/C=C/c3ccc(O)cc3)C[C@]12O,inconclusive: 37.9%
16,CCc1ccc(C(Nc2ccccn2)c2cc(Cl)c3cccnc3c2O)cc1 (stereo not drawn),inconclusive: 75.3%
17,C[C@H]1CN([C@@H](C)CO)C(=O)c2cc(NC(=O)Cn3cnnn3)ccc2O[C@@H]1CN(C)Cc1ccccc1,inconclusive: 58.5%
18,N#Cc1c(NC(=O)CSc2ncn[nH]2)sc2c1CCCCC2,active: 104%
19,COc1cc2c(cc1OC)[C@@H]1C(=O)c3ccc4c(c3O[C@@H]1CO2)CCC(C)(C)O4,inconclusive: 79.5%
20,C[C@@H]1CN([C@@H](C)CO)C(=O)c2cc(NC(=O)Nc3ccccc3)ccc2O[C@H]1CN(C)Cc1ccc(Cl)c(Cl)c1,inconclusive: 81%

# A portion from further up, as a working copy:
row,SMILES,inhibition
2,COc1cc(C(Nc2ccccn2)c2cc(Cl)c3cccnc3c2O)cc(I)c1O (stereo not drawn),inactive: 15.3%
3,Cc1ccc(S(=O)(=O)NC(C)(C)C(=O)Oc2cc(C)c3c(c2)oc(=O)c2ccccc23)cc1,inconclusive: 27.4%
4,CCC1(C)Cc2ccccc2-c2nc(NCCCO)n(-c3ccc(C)cc3)c(=O)c21 (stereo not drawn),inactive: -10.1%
5,COc1ccc(NC(=O)Nc2ccc3c(c2)C(=O)N([C@@H](C)CO)C[C@H](C)[C@@H](CN(C)S(=O)(=O)c2ccc(Cl)cc2)O3)cc1,inconclusive: 52.9%
6,O=S(=O)(NCC1COc2ccccc2O1)c1ccc(S(=O)(=O)c2ccccc2)s1 (stereo not drawn),inactive: 19.9%

# Additional structures follow.

row,SMILES,inhibition
1,Cc1noc(C)c1S(=O)(=O)Nc1ccc2c(c1)C(=O)N([C@H](C)CO)C[C@@H](C)[C@@H](CN(C)CC1CCCCC1)O2,inconclusive: 56.9%
2,c1ccc2[nH]c(CCn3c4c(c5ccccc53)CCCC4)nc2c1,inconclusive: 70.3%
3,C[C@@H]1CN([C@@H](C)CO)C(=O)Cc2cc(NC(=O)Nc3ccc4c(c3)OCO4)ccc2O[C@@H]1CN(C)Cc1ccc(-c2ccccc2)cc1,inactive: 20.7%
4,CCOC(=O)COc1cccc(-c2nc3ccccc3s2)c1,inconclusive: 81.9%
5,Cc1cc2nc(-c3cccc(NC(=O)COc4ccc(Cl)cc4)c3C)oc2cc1C,inconclusive: 83.7%
6,C[C@@H]1CN([C@H](C)CO)C(=O)Cc2cc(NC(=O)Nc3ccc(C(F)(F)F)cc3)ccc2O[C@@H]1CN(C)Cc1ccc(-c2ccccc2)cc1,inactive: 4.92%
7,CCn1c(SCC(=O)Nc2cccc(SC)c2)nnc1-c1ccc(Br)cc1,inactive: 20.6%
8,C[C@H]1CN([C@@H](C)CO)C(=O)c2cc(NC(=O)CCN3CCOCC3)ccc2O[C@@H]1CN(C)Cc1ccc(C(F)(F)F)cc1,inconclusive: 49.6%
9,CCN(CC(=O)Nc1cccc(C(F)(F)F)c1)S(=O)(=O)c1ccc(C)cc1,inactive: 9.48%
10,C[C@H](CO)N1C[C@H](C)[C@@H](CN(C)S(=O)(=O)c2ccccc2)Oc2ccc(NC(=O)Nc3ccc(C(F)(F)F)cc3)cc2C1=O,inconclusive: 55.5%
11,Cc1cc(C(=O)Nc2cccc3c2O[C@H](CN(C)Cc2ccc(C(=O)Nc4ccccc4N)cc2)[C@@H](C)CN([C@@H](C)CO)C3=O)n(C)n1,inactive: 11.4%
12,COc1c(-c2coc3cc4c(cc3c2=O)CC(O)C(C)(C)O4)ccc2c1C=CC(C)(C)O2 (stereo not drawn),active: 99.1%
13,CC(=O)Nc1ccc(NC(=O)CN(c2ccc(I)cc2)S(C)(=O)=O)cc1,inactive: -73.1%
14,COc1ccc(S(=O)(=O)Nc2ccc3c(c2)C(=O)N([C@H](C)CO)C[C@H](C)[C@@H](CN(C)Cc2ccc(Cl)c(Cl)c2)OCCCC[C@@H](C)O3)cc1,inconclusive: 81.3%
15,COc1cc(O)c2c(=O)cc(-c3ccc(OC)c(-c4c(O)cc(O)c5c(=O)cc(-c6ccc(O)cc6)oc45)c3)oc2c1,inconclusive: 81.1%
16,O=C(O)CCSc1nc2ccccc2s1,inconclusive: 84.1%
17,C[C@@H]1CCCCO[C@H](CN(C)C(=O)Nc2ccc(C(F)(F)F)cc2)[C@@H](C)CN([C@H](C)CO)C(=O)c2cc(NS(=O)(=O)c3ccccc3)ccc2O1,inactive: 35.7%
18,COc1ccc(C(NC(=O)c2ccccc2)c2ccc3cccnc3c2O)c(OC)c1 (stereo not drawn),inconclusive: 81.1%
